Assay results from article PMC5582858, “The yeast kinesin-5 Cin8 interacts with the microtubule in a noncanonical manner” (The Journal of Biological Chemistry, 2017).
Results are given in words; binding and its absence hold for the method and conditions named. A result given as binding can be weak or reduced; the word gives no strength. Sequences can lack the tags named with a protein. Each block holds one binder with its values, some of them ahead of it.

Experiments:
[1] = target: Paclitaxel-stabilized microtubules (bovine brain αβ-tubulin) (bovine); assay: co-sedimentation; all Cin8 constructs with paclitaxel-stabilised microtubules, no added nucleotide (supplemental Fig. S5); ionic strength for these constructs not given; both purified
[2] = target: Paclitaxel-stabilized microtubules (bovine brain αβ-tubulin) (bovine); assay: co-sedimentation; 0.25–4 μM Cin8-trx at fixed 0.25 μM microtubules, 20 μM paclitaxel, no added nucleotide, low and high ionic strength; both purified
[3] = target: Paclitaxel-stabilized microtubules (bovine brain αβ-tubulin) (bovine); assay: co-sedimentation; competition: increasing Eg5 added to Cin8·microtubule at 4:1, 60 min at 298 K before centrifugation; both purified
[4] = target: Paclitaxel-stabilized microtubules (bovine brain αβ-tubulin) (bovine); assay: co-sedimentation; competition: 0–12 μM Eg5 added to 2 μM Cin8-trx and 2 μM microtubules (1:1), 60 min at 298 K before centrifugation, low ionic strength; both purified
[5] = target: Paclitaxel-stabilized microtubules (bovine brain αβ-tubulin) (bovine); assay: co-sedimentation; 3 μM Cin8, 1 μM microtubules, no added nucleotide or 1 mM ATP, ADP or AMPPNP, low and high ionic strength; SDS-PAGE of supernatant and pellet; both purified
[6] = target: Paclitaxel-stabilized microtubules (bovine brain αβ-tubulin) (bovine); assay: stopped-flow light scattering; 0.5 or 2.5 μM kinesin rapidly mixed with 0.5 μM microtubules (1:1 or 5:1), low ionic strength, 298 K, 340 nm at 90°; both purified
[7] = target: Paclitaxel-stabilized microtubules (bovine brain αβ-tubulin) (bovine); assay: cryo-EM structure; Cin8-His in the ADP·AlFx state at ∼0.9× molar ratio with 2 μM paclitaxel microtubules, SB buffer diluted in water; helical reconstruction of 13-protofilament microtubules, ∼7 Å; both purified
[8] = target: Paclitaxel-stabilized microtubules (bovine brain αβ-tubulin) (bovine); assay: cryo-electron microscopy (micrographs); Cin8-His with microtubules, apyrase added after complex formation (no-nucleotide state), low ionic strength, Cin8 molar ratios down to 0.5×; both purified

B3: Cin8-His (S. cerevisiae kinesin-5 Cin8 motor domain, residues 70–535, with N-terminal His6 and TEV cleavage tags) (domain or fragment, UniProt P27895 70-535)
chain: ISINTTGDTGITAQMNAKRYTVDKVFGPGASQDLIFDEVAGPLFQDFIKGYNCTVLVYGMTSTGKTYTMTGDEKLYNGELSDAAGIIPRVLLKLFDTLELQQNDYVVKCSFIELYNEELKDLLDSNSNGSSNTGFDGQFMKKLRIFDSSTANNTTSNSASSSRSNSRNSSPRSLNDLTPKAALLRKRLRTKSLPNTIKQQYQQQQAVNSRNNSSSNSGSTTNNASSNTNTNNGQRSSMAPNDQTNGIYIQNLQEFHITNAMEGLNLLQKGLKHRQVASTKMNDFSSRSHTIFTITLYKKHQDELFRISKMNLVDLAGSENINRSGALNQRAKEAGSINQSLLTLGRVINALVDKSGHIPFRESKLTRLLQDSLGGNTKTALIATISPAKVTSEETCSTLEYASKAKNIKNKPQLGSFIMKDILVKNITMELAKIKSDLLSTKSKEGIYMSQDHYKNLNSDLESYKN
binding [6]: binds | binding [7]: binds | binding [8]: binds

B4: Cin8-tagless (Cin8 motor domain after removal of the purification tags with TEV protease) (domain or fragment, UniProt P27895 70-535)
chain: ISINTTGDTGITAQMNAKRYTVDKVFGPGASQDLIFDEVAGPLFQDFIKGYNCTVLVYGMTSTGKTYTMTGDEKLYNGELSDAAGIIPRVLLKLFDTLELQQNDYVVKCSFIELYNEELKDLLDSNSNGSSNTGFDGQFMKKLRIFDSSTANNTTSNSASSSRSNSRNSSPRSLNDLTPKAALLRKRLRTKSLPNTIKQQYQQQQAVNSRNNSSSNSGSTTNNASSNTNTNNGQRSSMAPNDQTNGIYIQNLQEFHITNAMEGLNLLQKGLKHRQVASTKMNDFSSRSHTIFTITLYKKHQDELFRISKMNLVDLAGSENINRSGALNQRAKEAGSINQSLLTLGRVINALVDKSGHIPFRESKLTRLLQDSLGGNTKTALIATISPAKVTSEETCSTLEYASKAKNIKNKPQLGSFIMKDILVKNITMELAKIKSDLLSTKSKEGIYMSQDHYKNLNSDLESYKN
binding [1]: binds

Second part, the binder after the results:

binding [1]: binds
B1: Cin8-trxΔR (like Cin8-trx, without the Arg9 tag) (domain or fragment, UniProt P27895 70-535)
chain: ISINTTGDTGITAQMNAKRYTVDKVFGPGASQDLIFDEVAGPLFQDFIKGYNCTVLVYGMTSTGKTYTMTGDEKLYNGELSDAAGIIPRVLLKLFDTLELQQNDYVVKCSFIELYNEELKDLLDSNSNGSSNTGFDGQFMKKLRIFDSSTANNTTSNSASSSRSNSRNSSPRSLNDLTPKAALLRKRLRTKSLPNTIKQQYQQQQAVNSRNNSSSNSGSTTNNASSNTNTNNGQRSSMAPNDQTNGIYIQNLQEFHITNAMEGLNLLQKGLKHRQVASTKMNDFSSRSHTIFTITLYKKHQDELFRISKMNLVDLAGSENINRSGALNQRAKEAGSINQSLLTLGRVINALVDKSGHIPFRESKLTRLLQDSLGGNTKTALIATISPAKVTSEETCSTLEYASKAKNIKNKPQLGSFIMKDILVKNITMELAKIKSDLLSTKSKEGIYMSQDHYKNLNSDLESYKN

binding [2]: binds | binding [3]: binds | binding [4]: binds | binding [5]: binds
B2: Cin8-trx (Cin8 motor domain, residues 70–535, fused to N-terminal thioredoxin (TrxA), His6, TEV cleavage and Arg9 tags) (domain or fragment, UniProt P27895 70-535)
chain: ISINTTGDTGITAQMNAKRYTVDKVFGPGASQDLIFDEVAGPLFQDFIKGYNCTVLVYGMTSTGKTYTMTGDEKLYNGELSDAAGIIPRVLLKLFDTLELQQNDYVVKCSFIELYNEELKDLLDSNSNGSSNTGFDGQFMKKLRIFDSSTANNTTSNSASSSRSNSRNSSPRSLNDLTPKAALLRKRLRTKSLPNTIKQQYQQQQAVNSRNNSSSNSGSTTNNASSNTNTNNGQRSSMAPNDQTNGIYIQNLQEFHITNAMEGLNLLQKGLKHRQVASTKMNDFSSRSHTIFTITLYKKHQDELFRISKMNLVDLAGSENINRSGALNQRAKEAGSINQSLLTLGRVINALVDKSGHIPFRESKLTRLLQDSLGGNTKTALIATISPAKVTSEETCSTLEYASKAKNIKNKPQLGSFIMKDILVKNITMELAKIKSDLLSTKSKEGIYMSQDHYKNLNSDLESYKN
